In paper PMC3791872, “Ciprofloxacin is an inhibitor of the Mcm2-7 replicative helicase” (Bioscience Reports, 2013):

Legend:
Mcm2-7 = assay: double filter binding; details: 150 nM helicase hexamer, 4 nM ssDNA, 20 min inhibitor preincubation at 37 C, label: 5'-32P, single-stranded DNA
Mcm467 = assay: double filter binding; details: 150 nM helicase hexamer, 4 nM ssDNA, 20 min inhibitor preincubation at 37 C, label: 5'-32P, single-stranded DNA
[1] = no inhibitor control (1% DMSO), 150 nM hexamer

**Q.** Which results are given for “TGTCTAATCCCGAAAGGCCCTGCCACTGAAATCAACACCTAAAGCATTGA [oligo 826]”?
**A.** binding result (Mcm2-7; 1 mM MAL2-11b): binds more weakly; binding result (Mcm2-7; 1 mM NEM): binds more weakly; binding result (Mcm2-7; 1 mM Nbf): binds more weakly; binding result (Mcm2-7; [1]): binds; binding result (Mcm467; 1 mM MAL2-11b): binds more weakly; binding result (Mcm467; 1 mM NEM): binds more weakly; binding result (Mcm467; 1 mM Nbf): binds more weakly; binding result (Mcm467; [1]): binds

The exact form of at least one protein or probe is not confirmed. A weaker result is weaker than the reference pair of the same experiment. At least one verdict was read from the data and is not stated in words by the source.
